Assay results as given in patent US7358221B1, “Metathesis depolymerizable surfactants” (Sandia Corporation, priority 2004, dated 2008).
At least one read-out could not be matched to a standard name with certainty.

Experiment: Critical micelle concentration by Orange OT dye solubilization
Type: physicochemical
Details: Orange OT absorbance at 523 nm, aqueous

C=CCCCCC=CCCCCC=CCCCCC[N+](C)(C)C.[I-] [Surfactant 4, trimethylnonadeca-6,12,18-trienylammonium iodide]
cmc determined by the dye solubilization method: 1.2 mM
